Experimental data reported in article PMC12377713.

Protein sequences, listed by entry. Tags and fused reporters are not part of them.
UniProt Q9Y519: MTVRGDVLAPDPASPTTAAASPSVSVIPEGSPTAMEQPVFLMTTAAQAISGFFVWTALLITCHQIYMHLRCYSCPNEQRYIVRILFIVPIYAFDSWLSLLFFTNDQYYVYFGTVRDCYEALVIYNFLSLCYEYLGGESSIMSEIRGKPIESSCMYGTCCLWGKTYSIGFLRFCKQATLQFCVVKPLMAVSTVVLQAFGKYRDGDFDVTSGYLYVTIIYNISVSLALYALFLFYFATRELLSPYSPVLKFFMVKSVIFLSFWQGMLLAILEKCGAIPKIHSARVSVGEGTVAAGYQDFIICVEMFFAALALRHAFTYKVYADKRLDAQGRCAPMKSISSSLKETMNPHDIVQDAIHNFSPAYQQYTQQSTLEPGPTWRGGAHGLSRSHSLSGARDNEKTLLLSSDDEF
UniProt Q9Y487: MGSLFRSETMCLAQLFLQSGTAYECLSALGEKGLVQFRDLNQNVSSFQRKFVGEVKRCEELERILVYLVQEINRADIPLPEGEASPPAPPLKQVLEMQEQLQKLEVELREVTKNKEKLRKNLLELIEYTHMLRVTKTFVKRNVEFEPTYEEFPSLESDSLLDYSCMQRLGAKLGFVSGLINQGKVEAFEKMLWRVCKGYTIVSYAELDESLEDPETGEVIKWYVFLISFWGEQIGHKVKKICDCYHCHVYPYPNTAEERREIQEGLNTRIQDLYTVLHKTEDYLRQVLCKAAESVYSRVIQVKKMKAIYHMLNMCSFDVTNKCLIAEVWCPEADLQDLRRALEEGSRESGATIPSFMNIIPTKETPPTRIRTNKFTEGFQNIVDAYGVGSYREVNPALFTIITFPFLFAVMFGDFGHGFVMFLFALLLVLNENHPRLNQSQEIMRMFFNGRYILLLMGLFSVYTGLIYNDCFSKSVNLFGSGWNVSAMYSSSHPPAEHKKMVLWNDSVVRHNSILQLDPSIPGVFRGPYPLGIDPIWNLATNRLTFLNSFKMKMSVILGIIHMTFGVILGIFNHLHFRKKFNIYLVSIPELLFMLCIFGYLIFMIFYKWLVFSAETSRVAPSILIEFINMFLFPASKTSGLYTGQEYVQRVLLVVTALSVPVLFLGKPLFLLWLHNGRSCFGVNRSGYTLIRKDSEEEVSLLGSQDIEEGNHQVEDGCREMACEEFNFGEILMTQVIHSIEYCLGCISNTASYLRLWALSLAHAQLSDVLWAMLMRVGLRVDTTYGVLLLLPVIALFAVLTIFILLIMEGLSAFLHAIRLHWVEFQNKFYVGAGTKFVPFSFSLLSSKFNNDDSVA
UniProt Q9Y6D5: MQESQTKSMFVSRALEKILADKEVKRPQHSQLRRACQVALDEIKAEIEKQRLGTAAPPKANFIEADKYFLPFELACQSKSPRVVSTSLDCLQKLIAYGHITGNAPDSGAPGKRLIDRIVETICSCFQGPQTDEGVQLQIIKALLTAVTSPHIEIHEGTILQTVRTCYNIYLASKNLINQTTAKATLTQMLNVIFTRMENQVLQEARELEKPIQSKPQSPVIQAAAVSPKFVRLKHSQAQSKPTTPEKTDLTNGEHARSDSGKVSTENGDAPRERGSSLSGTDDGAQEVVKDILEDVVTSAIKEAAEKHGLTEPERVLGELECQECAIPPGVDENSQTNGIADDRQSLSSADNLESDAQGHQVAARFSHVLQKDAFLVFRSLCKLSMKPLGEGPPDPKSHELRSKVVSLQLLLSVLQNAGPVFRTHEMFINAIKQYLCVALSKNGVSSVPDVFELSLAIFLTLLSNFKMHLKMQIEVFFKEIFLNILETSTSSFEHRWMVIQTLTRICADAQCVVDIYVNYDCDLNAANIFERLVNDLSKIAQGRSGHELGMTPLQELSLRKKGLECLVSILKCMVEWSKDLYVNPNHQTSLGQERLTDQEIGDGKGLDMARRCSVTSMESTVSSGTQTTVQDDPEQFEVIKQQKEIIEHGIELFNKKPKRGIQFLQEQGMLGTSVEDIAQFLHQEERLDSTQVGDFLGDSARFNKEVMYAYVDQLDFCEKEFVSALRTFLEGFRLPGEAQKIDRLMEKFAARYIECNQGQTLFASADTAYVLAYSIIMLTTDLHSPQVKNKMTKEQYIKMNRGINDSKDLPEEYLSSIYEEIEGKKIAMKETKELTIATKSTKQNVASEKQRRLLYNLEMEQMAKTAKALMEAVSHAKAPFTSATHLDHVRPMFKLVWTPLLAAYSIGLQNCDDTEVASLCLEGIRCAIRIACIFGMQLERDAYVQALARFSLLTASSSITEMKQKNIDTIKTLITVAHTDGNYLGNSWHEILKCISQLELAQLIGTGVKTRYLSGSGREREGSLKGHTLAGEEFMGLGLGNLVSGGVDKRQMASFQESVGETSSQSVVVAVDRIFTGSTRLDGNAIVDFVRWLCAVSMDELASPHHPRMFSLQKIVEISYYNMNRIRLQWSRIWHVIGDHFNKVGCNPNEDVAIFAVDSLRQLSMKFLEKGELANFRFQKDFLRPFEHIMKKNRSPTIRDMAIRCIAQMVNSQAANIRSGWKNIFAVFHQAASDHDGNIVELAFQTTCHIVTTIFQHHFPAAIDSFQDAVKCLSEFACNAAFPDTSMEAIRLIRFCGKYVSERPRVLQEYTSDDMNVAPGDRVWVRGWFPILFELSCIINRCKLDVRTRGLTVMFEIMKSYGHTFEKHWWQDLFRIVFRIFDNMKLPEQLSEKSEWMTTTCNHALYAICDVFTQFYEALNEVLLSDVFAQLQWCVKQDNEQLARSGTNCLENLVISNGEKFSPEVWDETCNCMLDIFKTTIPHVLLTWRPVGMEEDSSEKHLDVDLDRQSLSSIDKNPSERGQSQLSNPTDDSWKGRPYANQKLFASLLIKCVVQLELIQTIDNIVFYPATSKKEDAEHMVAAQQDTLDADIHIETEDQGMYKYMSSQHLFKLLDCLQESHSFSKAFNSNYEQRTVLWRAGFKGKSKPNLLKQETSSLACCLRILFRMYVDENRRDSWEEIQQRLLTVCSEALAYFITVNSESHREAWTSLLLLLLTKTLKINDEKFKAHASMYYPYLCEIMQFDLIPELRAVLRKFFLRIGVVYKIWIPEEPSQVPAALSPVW
UniProt Q8TDJ6: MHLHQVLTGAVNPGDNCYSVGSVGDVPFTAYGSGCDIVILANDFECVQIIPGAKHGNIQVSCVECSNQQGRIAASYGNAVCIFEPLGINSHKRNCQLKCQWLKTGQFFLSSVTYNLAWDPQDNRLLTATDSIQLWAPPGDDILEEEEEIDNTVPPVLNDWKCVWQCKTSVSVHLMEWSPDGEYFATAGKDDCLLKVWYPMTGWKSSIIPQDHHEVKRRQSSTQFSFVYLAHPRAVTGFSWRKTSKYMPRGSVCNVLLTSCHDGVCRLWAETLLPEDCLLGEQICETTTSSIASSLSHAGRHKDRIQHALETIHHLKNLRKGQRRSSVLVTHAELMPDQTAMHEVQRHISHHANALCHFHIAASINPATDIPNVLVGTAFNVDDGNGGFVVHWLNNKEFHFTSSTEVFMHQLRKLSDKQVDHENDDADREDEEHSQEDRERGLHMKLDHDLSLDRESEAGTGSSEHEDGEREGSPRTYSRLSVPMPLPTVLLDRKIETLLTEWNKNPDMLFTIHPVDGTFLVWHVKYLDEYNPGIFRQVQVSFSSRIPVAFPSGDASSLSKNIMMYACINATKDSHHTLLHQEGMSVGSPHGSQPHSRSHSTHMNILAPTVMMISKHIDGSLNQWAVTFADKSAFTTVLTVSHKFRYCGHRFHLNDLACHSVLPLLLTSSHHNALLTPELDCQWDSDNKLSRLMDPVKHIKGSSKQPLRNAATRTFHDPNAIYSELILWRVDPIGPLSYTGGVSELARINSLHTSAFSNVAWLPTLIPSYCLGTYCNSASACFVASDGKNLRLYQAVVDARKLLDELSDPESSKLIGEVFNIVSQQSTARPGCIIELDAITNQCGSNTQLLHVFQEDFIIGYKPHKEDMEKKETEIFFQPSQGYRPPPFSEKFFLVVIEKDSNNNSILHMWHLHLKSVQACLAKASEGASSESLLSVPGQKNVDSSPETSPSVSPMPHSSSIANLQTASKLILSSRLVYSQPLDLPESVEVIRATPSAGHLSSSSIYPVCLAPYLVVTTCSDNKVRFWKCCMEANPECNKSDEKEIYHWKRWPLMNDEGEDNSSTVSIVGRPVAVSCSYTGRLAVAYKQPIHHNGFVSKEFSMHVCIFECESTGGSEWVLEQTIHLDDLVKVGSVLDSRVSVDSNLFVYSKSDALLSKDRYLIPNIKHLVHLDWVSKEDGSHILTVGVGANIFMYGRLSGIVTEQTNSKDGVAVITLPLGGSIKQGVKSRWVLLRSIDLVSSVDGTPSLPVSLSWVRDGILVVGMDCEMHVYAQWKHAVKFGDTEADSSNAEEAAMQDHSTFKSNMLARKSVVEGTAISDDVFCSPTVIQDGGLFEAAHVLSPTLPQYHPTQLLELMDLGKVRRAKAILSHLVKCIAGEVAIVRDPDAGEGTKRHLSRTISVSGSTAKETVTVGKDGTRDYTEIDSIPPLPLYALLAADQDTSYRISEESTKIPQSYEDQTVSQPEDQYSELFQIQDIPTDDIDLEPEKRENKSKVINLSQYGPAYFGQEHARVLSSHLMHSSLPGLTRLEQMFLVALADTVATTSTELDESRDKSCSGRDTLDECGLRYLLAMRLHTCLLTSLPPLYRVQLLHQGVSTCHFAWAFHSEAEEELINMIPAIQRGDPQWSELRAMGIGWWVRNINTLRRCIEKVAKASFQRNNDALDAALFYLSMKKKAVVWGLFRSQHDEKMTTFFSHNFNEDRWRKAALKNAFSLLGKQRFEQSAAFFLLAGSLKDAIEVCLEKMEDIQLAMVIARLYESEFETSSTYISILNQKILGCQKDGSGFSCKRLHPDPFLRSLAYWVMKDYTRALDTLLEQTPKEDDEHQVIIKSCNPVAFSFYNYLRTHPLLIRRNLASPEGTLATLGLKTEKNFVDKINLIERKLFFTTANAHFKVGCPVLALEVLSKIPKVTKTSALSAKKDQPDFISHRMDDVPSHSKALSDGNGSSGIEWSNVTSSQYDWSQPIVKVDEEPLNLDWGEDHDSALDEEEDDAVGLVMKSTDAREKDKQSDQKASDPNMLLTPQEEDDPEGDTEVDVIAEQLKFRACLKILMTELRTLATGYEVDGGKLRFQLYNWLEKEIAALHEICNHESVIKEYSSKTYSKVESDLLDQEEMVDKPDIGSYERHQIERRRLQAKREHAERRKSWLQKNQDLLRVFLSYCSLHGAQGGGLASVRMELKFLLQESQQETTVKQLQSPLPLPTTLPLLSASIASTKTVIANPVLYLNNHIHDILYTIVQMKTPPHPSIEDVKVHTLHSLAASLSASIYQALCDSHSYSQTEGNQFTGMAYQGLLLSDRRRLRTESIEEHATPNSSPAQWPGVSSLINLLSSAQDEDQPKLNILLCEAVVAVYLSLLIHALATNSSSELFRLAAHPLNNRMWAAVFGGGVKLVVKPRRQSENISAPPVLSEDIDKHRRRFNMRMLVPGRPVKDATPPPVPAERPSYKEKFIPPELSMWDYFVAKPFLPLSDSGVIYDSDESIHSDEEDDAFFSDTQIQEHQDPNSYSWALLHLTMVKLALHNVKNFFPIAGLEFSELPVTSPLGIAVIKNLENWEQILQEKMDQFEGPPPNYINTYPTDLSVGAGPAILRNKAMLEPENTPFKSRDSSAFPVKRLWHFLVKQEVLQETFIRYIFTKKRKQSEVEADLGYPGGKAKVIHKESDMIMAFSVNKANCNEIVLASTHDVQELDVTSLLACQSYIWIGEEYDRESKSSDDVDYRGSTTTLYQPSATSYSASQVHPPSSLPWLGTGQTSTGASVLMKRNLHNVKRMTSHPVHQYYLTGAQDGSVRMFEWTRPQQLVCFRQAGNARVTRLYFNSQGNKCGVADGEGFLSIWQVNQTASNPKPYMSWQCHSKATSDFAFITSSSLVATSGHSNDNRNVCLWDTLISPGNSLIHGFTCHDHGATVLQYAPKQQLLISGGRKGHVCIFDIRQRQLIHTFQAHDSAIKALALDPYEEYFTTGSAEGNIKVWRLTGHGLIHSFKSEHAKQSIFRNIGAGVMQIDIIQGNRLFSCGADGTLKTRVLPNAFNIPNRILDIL

B1: AAA-ATPase VPS4B (protein, UniProt O75351 1-444)
chain: MSSTSPNLQKAIDLASKAAQEDKAGNYEEALQLYQHAVQYFLHVVKYEAQGDKAKQSIRAKCTEYLDRAEKLKEYLKNKEKKAQKPVKEGQPSPADEKGNDSDGEGESDDPEKKKLQNQLQGAIVIERPNVKWSDVAGLEGAKEALKEAVILPIKFPHLFTGKRTPWRGILLFGPPGTGKSYLAKAVATEANNSTFFSISSSDLVSKWLGESEKLVKNLFQLARENKPSIIFIDEIDSLCGSRSENESEAARRIKTEFLVQMQGVGVDNDGILVLGATNIPWVLDSAIRRRFEKRIYIPLPEPHARAAMFKLHLGTTQNSLTEADFRELGRKTDGYSGADISIIVRDALMQPVRKVQSATHFKKVRGPSRADPNHLVDDLLTPCSPGDPGAIEMTWMDVPGDKLLEPVVSMSDMLRSLSNTKPTVNEHDLLKLKKFTEDFGQEG
B2: EH domain containing protein family 3 (EHD3) (protein, UniProt Q9NZN3 1-535)
chain: MFSWLGTDDRRRKDPEVFQTVSEGLKKLYKSKLLPLEEHYRFHEFHSPALEDADFDNKPMVLLVGQYSTGKTTFIRYLLEQDFPGMRIGPEPTTDSFIAVMQGDMEGIIPGNALVVDPKKPFRKLNAFGNAFLNRFVCAQLPNPVLESISVIDTPGILSGEKQRISRGYDFAAVLEWFAERVDRIILLFDAHKLDISDEFSEVIKALKNHEDKMRVVLNKADQIETQQLMRVYGALMWSLGKIVNTPEVIRVYIGSFWSHPLLIPDNRKLFEAEEQDLFRDIQSLPRNAALRKLNDLIKRARLAKVHAYIISSLKKEMPSVFGKDNKKKELVNNLAEIYGRIEREHQISPGDFPNLKRMQDQLQAQDFSKFQPLKSKLLEVVDDMLAHDIAQLMVLVRQEESQRPIQMVKGGAFEGTLHGPFGHGYGEGAGEGIDDAEWVVARDKPMYDEIFYTLSPVDGKITGANAKKEMVRSKLPNSVLGKIWKLADIDKDGMLDDDEFALANHLIKVKLEGHELPNELPAHLLPPSKRKVAE

Target: Transmembrane protein 184B (TMEM184B), C-terminal Myc or V5 tag (not stated (human or mouse cDNA cloned)) (UniProt Q9Y519)
Experiment: affinity purification with mass spectrometry; HEK293T transfected with TMEM184B–Myc or TMEM184B–V5, two biological replicates each; RIPA lysate (1.5 mg) on Protein A/G magnetic beads with anti-Myc or anti-V5 antibody, overnight 4°C; control baits with the same tags; hits with fold change >=2 in both tag systems, common contaminants filtered …

binding, binds:
V-ATPase subunit V0a isoform a2 (from UniProt Q9Y487 1-856), ADP-ribosylation factor guanine nucleotide exchange factor 2 (ARFGEF2) (from UniProt Q9Y6D5 1-1785), coiled-coil domain containing 22 (CCDC22) (from UniProt O60826 1-627), ATP6V0A1 (the V0a1 subunit of the V-ATPase) (from UniProt Q93050 1-837), Drosophila melanogaster X chromosomal gene-like protein 1 (DMXL1) (from UniProt Q9Y485 1-3027), Drosophila melanogaster X chromosomal gene-like protein 2 (DMXL2) (from UniProt Q8TDJ6 1-3036)

Target: Transmembrane protein 184B (TMEM184B), C-terminal Myc or V5 tag (not stated (human or mouse cDNA cloned)) (UniProt Q9Y519)
Experiment: as above
Remark: another data set of the same source

binding, binds:
B1, B2

These are yes or no findings as the source states them, for the method shown. Binding seen in cells or lysates may run through a third protein. These calls come from enrichment with a bait or labelling near it, and not all partners need be listed.
